Data from article PMC10683276.
No constants are given. Whether binding was seen depends on the method and setting. Binding seen in cells or lysates may run through a third protein. Some entries that bind do so weakly or less than the wild type. Where a sequence is shown, tags or fusion partners need not be part of it.

Chains of the proteins cited; added tags and fusions are not shown. Residues count along the entry.
UniProt Q01097, residues 27-1482: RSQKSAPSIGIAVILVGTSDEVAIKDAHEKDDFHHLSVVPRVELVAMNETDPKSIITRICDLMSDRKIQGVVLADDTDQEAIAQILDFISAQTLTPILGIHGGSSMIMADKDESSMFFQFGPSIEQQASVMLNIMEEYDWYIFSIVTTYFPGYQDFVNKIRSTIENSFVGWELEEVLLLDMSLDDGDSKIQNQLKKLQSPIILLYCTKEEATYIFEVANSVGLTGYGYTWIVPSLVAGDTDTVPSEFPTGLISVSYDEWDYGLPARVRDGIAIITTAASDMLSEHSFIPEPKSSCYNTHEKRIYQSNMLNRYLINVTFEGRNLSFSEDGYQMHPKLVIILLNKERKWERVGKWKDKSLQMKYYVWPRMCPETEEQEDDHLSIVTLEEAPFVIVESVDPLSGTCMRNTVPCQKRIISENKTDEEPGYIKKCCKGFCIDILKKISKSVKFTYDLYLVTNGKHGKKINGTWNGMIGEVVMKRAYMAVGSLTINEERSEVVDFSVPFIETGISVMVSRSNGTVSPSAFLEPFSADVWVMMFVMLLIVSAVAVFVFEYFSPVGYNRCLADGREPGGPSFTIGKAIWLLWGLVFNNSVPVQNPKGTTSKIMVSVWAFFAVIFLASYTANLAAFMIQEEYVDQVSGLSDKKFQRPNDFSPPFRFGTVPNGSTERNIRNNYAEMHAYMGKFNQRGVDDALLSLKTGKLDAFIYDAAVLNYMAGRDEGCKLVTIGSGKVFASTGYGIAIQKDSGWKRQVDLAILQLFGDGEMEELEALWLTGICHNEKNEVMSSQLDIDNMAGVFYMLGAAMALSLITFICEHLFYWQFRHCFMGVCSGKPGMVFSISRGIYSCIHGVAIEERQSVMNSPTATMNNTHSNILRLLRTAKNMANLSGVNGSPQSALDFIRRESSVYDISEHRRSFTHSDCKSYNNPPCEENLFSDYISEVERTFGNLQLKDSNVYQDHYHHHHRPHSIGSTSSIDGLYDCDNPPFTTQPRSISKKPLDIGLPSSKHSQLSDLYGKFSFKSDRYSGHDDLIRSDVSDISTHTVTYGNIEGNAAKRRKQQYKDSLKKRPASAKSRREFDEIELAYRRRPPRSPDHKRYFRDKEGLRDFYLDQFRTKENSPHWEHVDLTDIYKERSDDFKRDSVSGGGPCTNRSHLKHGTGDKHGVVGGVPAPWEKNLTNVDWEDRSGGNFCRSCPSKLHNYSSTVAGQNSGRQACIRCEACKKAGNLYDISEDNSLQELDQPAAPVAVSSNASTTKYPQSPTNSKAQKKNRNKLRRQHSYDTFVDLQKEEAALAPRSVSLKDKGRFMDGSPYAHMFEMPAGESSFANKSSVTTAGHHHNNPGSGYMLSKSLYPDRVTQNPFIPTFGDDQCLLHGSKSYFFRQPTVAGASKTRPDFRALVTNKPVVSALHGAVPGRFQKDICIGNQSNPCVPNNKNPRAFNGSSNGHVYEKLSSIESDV
UniProt Q9CQJ4: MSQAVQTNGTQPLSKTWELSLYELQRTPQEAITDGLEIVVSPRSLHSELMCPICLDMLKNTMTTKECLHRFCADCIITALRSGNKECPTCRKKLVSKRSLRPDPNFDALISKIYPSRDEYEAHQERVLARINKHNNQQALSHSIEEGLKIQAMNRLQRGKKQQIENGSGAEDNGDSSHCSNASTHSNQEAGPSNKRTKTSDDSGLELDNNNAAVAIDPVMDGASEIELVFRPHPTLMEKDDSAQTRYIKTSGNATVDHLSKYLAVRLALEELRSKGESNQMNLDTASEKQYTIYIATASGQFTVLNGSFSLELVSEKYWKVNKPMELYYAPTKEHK
UniProt Q80XJ2: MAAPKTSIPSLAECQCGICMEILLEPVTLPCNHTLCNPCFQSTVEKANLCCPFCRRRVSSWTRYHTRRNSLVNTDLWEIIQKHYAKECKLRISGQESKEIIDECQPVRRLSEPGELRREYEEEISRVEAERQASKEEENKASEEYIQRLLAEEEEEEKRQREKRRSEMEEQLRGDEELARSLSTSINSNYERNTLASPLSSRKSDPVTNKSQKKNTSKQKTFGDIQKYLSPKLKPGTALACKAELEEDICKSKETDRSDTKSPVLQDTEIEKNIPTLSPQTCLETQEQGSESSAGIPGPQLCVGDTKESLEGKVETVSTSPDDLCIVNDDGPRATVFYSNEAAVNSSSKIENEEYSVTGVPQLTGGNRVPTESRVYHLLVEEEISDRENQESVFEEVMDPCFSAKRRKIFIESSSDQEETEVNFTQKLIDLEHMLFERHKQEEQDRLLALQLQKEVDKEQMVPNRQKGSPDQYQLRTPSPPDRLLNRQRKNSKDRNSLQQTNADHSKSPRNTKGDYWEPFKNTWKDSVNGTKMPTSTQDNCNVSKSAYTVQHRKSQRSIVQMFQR

T1: UBE2K-GFP (ubiquitin conjugating enzyme E2 K fused to GFP) (UniProt P61087)
T1 sequence: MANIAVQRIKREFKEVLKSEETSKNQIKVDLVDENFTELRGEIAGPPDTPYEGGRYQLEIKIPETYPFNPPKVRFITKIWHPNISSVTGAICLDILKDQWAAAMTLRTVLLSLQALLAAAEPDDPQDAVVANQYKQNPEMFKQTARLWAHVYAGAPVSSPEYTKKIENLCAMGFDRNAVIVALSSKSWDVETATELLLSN

B1: RNF138, endogenous in N2a cells (enzyme, UniProt Q9CQE0 1-245)
chain: MSEELSAATSYTEDDFYCPVCQEVLKTPVRTAACQHVFCRKCFLTAMRESGIHCPLCRGSVTRRERACPERALDLENIMRRFSGSCRCCSKKIKFYRMRHHYKSCKKYQDEYGVSSVIPNFKISQDSVRSSNRSETSASDNTETYQEDTSSSGHPTFKCPLCQESNFTRQRLLDHCNSNHLFQIVPVTCPICVSLPWGDPSQITRNFVSHLNQRHQFDYGEFVNLQLDEETQYQTAVEESFQVNM

Target: T1, UBE2K-GFP (ubiquitin conjugating enzyme E2 K fused to GFP)
Test: co-IP; 500 ug of protein from lysates of N2a cells transfected with vector or UBE2K-GFP; precipitated with anti-GFP antibody or nonspecific IgG; blotted for GluN2B, RNF168, RNF138, RNF2 and UBE2K

Row | binding | Molecule
1 | binds | GluN2B subunit of NMDA receptor, endogenous in N2a cells (from UniProt Q01097 27-1482)
2 | no binding | RNF2, endogenous in N2a cells (from UniProt Q9CQJ4 1-336) (enzyme)
3 | binds | RING finger family 168 (RNF168), endogenous in N2a cells (from UniProt Q80XJ2 1-565) (enzyme)
4 | binds | B1
